Measurements taken from US20220002426A1.
Where a chain is given by its changes, count along the chain named. These are yes or no findings as the source states them, for the method shown. A result given as binding can be weak or reduced; the word gives no strength. Blank lines part the entries; values can stand above or below the binder they belong to.

Protein sequences, listed by entry. Tags and fused reporters are not part of them. Lines headed by an entry give the natural chain unless they say otherwise; changes in a name come on top.
UniProt P20333: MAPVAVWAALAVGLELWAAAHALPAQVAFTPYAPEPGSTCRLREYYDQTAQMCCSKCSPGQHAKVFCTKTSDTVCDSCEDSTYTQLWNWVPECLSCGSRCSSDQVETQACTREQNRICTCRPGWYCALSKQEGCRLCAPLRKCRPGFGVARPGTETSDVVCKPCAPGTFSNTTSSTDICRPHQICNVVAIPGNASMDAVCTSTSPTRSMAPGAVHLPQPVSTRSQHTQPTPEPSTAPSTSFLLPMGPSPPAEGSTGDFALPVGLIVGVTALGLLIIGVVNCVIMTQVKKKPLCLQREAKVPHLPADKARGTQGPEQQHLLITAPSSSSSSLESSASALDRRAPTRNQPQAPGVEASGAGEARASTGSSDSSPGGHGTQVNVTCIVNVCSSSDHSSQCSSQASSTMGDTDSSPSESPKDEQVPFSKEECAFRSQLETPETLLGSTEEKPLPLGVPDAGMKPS

Assays:
[1] = molecular target: hTNFR2-Δ1 + 3 (human) (UniProt P20333); experiment: FACS, transfected HEK293 cells
[2] = molecular target: hTNFR2-Δ2 (human); experiment: FACS, transfected HEK293 cells
[3] = molecular target: hTNFR2-Δ1 (human) (UniProt P20333); experiment: FACS, transfected HEK293 cells
[4] = molecular target: hTNFR2-Δ1 + 3 (human) (UniProt P20333); experiment: FACS, transfected HEK293
[5] = molecular target: hTNFR2-Δ2 (human); experiment: FACS, transfected HEK293
[6] = molecular target: hTNFR2-Δ1 (human) (UniProt P20333); experiment: FACS, transfected HEK293
[7] = molecular target: hTNFR2-Δ4 (human) (UniProt P20333); experiment: FACS, transfected HEK293 cells
[8] = molecular target: hTNFR2-Δ2 + 4 (human) (UniProt P20333); experiment: FACS, transfected HEK293 cells
[9] = molecular target: hTNFR2-Δ2 + 4 (human) (UniProt P20333); experiment: FACS, transfected HEK293

B2: 001-H10 (antibody, V domains shown)
VH: EVQLLESGGGLVQPGGSLRLSCAASGFTFDDYGMSWVRQAPGKGLEWVSVIYSGGSTYYADSVKGRFTISRDNSKNTLYLQMNSLRAEDTAVYYCARDRSSSWYRDGMDVWGQGTLVTVSS
VL: QSVLTQPPSASGTPGQRVTISCTGSSSNIGAGYDVHWYQQLPGTAPKLLIYGNSNRPSGVPDRFSGSKSGTSASLAISGLRSEDEADYYCAAWDDSLSGWVFGGGTKLTVLG
binding [7]: binds
binding [2]: binds
binding [3]: binds
binding [8]: binds
binding [5]: binds
binding [6]: binds
binding [9]: binds

B3: 004-E08 (antibody, V domains shown)
VH: EVQLLESGGGLVQPGGSLRLSCAASGFTFSRYWMHWVRQVPGKGLEWVSGISDSGVVTYYADSVKGRFTISRDNSKNTLYLQMNSLRAEDTAVYYCARAQSVAFDIWGQGTLVTVSS
VL: B2 VL with T23S, Y33H, G52Y, N53D, S54D, N55L, R56L
binding [2]: binds
binding [3]: binds
binding [5]: binds
binding [6]: binds

B4: 001-G10 (antibody, V domains shown)
VH: EVQLLESGGGLVQPGGSLRLSCAASGFTFSAYGMHWVRQAPGKGLEWVAVVSYDGREKHYADSVKGRFTISRDNSKNTLYLQMNSLRAEDTAVYYCARSDGGYDSDSGYYWGQGTLVTVSS
VL: QSVLTQPPSASGTPGQRVTISCSGSTSNIGSNFVYWYQQLPGTAPKLLIYDNNKRPSGVPDRFSGSKSGTSASLAISGLRSEDEADYYCSSYAYSDNILFGGGTKLTVLG
binding [2]: binds
binding [3]: binds

The next lines start with the values.

binding [1]: binds
binding [2]: binds
binding [3]: binds
binding [4]: binds
binding [5]: binds
binding [6]: binds
B1: 001-F06 (antibody, V domains shown)
VH: EVQLLESGGGLVQPGGSLRLSCAASGFTFSSYAMHWVRQAPGKGLEWVSAISGGATTTYYADSVKGRFTISRDNSKNTLYLQMNSLRAEDTAVYYCAKGGTGDPYYFDYWGQGTLVTVSS
VL: B2 VL with G52R, S54N, N55Q, W93R, S96G, W100P

binding [2]: binds
binding [3]: binds
binding [5]: binds
binding [6]: binds
B5: 001-F02 (antibody, V domains shown)
VH: EVQLLESGGGLVQPGGSLRLSCAASGFTFSDYYMSWVRQAPGKGLEWVANINTDGSEKYYLDSVKGRFTISRDNSKNTLYLQMNSLRAEDTAVYYCAREEYGAFDIWGQGTLVTVSS
VL: QSVLTQPPSASGTPGQRVTISCSGSSSNIGSNTVNWYQQLPGTAPKLLIYDNNKRPSGVPDRFSGSKSGTSASLAISGLRSEDEADYYCQSFDRGLSGSIVFGGGTKLTVLG
